Assay results reported in the supplement of paper PMC12067093, “Discovery and optimisation of a covalent ligand for TRIM25 and its application to targeted protein ubiquitination” (Chemical Science, 2025).
The list shows a part of the results.

By UniProt entry, the sequences of proteins in these tests, tags left out. Where a name states a change or a piece, a line headed by the entry shows the natural chain unless it says otherwise.
UniProt Q99575: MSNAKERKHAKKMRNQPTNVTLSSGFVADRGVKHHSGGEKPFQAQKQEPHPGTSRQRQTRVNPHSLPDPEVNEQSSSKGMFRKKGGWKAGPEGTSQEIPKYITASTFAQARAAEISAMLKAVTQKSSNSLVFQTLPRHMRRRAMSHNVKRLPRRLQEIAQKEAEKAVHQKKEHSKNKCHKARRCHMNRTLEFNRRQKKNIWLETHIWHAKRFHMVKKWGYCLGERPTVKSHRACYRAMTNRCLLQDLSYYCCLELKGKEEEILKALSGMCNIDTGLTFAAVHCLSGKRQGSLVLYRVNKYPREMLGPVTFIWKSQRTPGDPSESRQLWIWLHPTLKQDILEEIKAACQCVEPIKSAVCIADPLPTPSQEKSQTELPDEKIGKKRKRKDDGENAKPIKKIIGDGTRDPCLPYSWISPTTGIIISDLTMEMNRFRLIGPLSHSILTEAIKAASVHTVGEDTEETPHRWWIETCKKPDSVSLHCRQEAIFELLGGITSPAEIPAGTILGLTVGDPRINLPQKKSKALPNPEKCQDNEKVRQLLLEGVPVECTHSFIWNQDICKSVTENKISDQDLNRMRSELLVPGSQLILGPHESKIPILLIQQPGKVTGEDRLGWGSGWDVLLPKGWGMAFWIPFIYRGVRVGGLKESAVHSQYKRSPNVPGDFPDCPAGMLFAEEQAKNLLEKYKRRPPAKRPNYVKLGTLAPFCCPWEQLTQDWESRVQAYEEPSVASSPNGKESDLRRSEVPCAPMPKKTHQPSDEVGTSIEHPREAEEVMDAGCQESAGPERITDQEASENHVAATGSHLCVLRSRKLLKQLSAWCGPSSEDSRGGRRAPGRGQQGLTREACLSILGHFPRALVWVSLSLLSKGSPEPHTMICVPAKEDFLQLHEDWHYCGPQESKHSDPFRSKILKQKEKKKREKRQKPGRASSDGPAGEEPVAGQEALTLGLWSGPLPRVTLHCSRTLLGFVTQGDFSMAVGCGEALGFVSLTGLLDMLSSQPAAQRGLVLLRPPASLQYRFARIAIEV
UniProt Q07864, whole entry, looked up: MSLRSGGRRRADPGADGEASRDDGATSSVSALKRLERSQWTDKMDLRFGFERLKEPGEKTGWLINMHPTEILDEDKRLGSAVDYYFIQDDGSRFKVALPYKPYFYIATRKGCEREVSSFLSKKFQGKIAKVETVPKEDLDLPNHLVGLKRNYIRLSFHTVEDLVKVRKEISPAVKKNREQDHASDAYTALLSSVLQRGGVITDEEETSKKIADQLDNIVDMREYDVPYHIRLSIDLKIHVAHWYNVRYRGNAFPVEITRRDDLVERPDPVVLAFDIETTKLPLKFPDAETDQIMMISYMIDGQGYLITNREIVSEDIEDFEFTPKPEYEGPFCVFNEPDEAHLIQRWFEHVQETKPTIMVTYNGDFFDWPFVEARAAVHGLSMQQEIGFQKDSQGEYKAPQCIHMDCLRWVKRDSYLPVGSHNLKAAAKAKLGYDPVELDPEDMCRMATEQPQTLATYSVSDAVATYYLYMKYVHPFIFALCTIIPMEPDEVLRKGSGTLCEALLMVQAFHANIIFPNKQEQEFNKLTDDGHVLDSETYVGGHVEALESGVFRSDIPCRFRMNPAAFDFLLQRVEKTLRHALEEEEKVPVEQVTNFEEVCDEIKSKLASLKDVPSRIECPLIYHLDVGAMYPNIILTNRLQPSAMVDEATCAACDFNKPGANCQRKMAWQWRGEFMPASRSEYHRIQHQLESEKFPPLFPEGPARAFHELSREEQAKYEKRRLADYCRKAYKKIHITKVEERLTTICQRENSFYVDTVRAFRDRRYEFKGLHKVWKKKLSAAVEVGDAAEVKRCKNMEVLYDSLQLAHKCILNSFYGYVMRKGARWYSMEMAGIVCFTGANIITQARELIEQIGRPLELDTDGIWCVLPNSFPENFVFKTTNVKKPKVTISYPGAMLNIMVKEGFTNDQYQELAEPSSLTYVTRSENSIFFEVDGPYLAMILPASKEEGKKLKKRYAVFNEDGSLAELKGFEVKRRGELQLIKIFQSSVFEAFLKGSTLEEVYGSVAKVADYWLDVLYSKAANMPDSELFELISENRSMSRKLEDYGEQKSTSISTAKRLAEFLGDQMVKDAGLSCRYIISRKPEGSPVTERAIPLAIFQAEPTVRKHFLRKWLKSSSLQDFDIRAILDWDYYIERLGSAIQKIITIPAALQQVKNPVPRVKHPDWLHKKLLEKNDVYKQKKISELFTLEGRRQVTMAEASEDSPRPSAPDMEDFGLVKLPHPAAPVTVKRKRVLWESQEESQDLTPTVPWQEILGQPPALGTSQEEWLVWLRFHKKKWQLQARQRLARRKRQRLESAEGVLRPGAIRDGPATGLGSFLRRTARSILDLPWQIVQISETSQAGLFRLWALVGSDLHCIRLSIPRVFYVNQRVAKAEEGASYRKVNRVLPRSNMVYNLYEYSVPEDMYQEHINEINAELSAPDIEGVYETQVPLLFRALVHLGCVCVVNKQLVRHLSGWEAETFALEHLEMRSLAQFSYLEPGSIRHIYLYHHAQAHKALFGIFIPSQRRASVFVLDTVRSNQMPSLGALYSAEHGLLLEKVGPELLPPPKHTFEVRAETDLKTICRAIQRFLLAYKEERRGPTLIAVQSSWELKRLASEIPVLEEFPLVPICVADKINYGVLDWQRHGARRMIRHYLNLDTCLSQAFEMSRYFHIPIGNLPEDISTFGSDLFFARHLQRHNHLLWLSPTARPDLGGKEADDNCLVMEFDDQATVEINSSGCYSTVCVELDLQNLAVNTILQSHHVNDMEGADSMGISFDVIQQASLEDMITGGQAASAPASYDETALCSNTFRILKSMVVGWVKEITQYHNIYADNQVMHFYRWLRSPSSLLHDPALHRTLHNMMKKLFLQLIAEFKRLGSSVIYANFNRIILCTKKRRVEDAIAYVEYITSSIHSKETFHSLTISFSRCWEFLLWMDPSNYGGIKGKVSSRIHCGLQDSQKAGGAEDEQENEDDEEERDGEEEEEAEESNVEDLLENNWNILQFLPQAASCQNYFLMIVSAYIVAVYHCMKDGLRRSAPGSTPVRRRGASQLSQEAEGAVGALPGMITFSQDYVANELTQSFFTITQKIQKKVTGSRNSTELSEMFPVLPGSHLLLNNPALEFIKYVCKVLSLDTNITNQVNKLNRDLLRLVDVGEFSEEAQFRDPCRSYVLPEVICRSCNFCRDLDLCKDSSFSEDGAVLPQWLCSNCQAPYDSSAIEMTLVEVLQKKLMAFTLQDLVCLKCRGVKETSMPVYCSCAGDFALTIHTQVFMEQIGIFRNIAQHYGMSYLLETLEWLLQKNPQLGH
UniProt P16435: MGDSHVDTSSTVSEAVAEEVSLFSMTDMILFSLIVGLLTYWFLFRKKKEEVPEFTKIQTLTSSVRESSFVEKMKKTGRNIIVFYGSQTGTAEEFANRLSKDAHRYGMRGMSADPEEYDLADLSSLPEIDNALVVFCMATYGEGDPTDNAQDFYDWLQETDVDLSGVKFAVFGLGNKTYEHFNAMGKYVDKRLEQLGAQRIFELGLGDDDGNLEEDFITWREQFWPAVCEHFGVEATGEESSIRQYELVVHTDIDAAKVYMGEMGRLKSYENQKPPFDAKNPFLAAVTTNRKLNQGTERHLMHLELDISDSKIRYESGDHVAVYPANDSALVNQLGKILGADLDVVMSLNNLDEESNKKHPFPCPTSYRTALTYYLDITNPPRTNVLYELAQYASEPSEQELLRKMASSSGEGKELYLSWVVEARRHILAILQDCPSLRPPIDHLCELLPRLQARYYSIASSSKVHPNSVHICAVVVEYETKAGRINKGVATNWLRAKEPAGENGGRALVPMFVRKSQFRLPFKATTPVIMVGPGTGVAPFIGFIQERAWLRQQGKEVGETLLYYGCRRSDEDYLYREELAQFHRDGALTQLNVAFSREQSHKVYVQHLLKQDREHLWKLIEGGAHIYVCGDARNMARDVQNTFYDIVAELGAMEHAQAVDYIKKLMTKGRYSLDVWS
UniProt Q9H9Y6, whole entry, looked up: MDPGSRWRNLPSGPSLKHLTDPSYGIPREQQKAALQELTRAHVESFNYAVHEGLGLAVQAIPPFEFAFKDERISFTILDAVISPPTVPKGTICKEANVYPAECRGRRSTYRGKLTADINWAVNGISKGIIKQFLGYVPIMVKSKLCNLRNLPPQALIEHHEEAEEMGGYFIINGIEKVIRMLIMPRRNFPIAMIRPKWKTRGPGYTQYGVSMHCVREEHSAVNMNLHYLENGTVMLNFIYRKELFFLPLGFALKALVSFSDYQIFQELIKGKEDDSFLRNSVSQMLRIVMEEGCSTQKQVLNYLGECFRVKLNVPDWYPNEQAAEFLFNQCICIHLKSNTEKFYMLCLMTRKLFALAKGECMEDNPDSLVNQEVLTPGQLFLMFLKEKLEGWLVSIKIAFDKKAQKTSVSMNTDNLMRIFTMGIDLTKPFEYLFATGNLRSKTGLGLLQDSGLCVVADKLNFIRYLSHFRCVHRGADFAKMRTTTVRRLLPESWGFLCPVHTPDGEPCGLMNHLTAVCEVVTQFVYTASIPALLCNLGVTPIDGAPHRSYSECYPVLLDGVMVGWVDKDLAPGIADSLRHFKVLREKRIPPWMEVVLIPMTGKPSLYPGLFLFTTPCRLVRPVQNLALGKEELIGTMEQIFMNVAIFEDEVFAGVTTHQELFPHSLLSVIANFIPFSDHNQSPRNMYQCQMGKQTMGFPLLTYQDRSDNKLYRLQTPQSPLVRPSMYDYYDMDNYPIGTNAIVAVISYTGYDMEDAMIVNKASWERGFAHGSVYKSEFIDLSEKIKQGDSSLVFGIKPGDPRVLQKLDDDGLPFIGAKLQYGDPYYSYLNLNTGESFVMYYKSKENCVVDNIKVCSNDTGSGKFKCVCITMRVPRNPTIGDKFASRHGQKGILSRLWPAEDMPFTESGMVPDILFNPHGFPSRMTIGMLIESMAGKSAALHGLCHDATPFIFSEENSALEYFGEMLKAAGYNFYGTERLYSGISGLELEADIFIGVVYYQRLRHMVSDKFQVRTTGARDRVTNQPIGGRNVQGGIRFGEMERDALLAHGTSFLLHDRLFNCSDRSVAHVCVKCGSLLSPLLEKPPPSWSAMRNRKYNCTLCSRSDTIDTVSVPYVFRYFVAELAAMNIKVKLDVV
UniProt P62937, whole entry, looked up: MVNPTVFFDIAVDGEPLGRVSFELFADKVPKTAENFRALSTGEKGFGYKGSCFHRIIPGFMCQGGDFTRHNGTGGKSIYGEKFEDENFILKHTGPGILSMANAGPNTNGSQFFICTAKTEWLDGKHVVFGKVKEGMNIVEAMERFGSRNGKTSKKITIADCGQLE
UniProt O43447: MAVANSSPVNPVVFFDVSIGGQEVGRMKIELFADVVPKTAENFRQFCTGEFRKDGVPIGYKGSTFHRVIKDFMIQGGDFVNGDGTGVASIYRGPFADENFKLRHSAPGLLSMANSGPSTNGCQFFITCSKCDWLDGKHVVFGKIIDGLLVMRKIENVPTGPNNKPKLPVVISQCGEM
UniProt Q9NW08: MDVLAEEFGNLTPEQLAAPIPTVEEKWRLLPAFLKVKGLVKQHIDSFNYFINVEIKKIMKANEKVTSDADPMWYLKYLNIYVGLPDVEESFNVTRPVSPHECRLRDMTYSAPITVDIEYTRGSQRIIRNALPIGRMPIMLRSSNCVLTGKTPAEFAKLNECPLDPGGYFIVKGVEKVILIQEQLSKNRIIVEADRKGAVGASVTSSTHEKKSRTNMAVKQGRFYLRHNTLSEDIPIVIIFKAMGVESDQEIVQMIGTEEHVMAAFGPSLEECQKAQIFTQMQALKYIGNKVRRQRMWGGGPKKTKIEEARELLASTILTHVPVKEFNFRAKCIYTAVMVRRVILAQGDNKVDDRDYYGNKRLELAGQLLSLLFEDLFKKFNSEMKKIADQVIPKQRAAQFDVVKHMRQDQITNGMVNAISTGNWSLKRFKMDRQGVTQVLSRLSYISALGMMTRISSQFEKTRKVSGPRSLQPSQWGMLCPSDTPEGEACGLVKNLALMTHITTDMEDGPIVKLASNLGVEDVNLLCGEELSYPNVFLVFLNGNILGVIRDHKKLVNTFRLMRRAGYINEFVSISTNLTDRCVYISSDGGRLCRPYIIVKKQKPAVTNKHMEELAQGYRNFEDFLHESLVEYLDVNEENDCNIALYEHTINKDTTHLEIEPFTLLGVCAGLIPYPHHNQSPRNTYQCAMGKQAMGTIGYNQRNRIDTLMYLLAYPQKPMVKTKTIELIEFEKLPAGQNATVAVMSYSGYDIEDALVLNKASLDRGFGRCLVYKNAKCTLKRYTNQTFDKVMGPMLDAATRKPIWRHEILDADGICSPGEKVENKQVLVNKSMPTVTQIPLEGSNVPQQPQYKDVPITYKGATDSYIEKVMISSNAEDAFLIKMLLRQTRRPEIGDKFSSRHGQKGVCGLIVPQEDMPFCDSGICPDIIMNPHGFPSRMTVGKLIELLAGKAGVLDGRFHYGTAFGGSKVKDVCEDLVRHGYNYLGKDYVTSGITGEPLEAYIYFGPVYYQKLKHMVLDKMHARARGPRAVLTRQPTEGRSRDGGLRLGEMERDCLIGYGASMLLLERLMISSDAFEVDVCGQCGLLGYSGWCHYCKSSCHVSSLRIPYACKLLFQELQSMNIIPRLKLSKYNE

Compound: Cc1cc(ccc1-c1ccccc1)C(=O)N1CCCN(CC1)C(=O)CCl [compound 10]
Assay: probe-labelled cysteine peptide fold change vs DMSO (competition) (log2 fold change); higher = less target engagement (more negative = stronger competition)
Settings: THP-1, incubation time: 4 h
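Also: competitive profiling in live THP-1 cells: cysteine peptides tagged with an iodoacetamide desthiobiotin (IA-DTB) probe, intensity after compound treatment relative to DMSO-treated cells.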

POP1_Q99575_481_KPDSVSLHCR (UniProt Q99575)
probe-labelled cysteine peptide fold change (10 µM): 0.257
probe-labelled cysteine peptide fold change (50 µM): -0.0829

POLE_Q07864_558_SDIPCR (UniProt Q07864)
probe-labelled cysteine peptide fold change (10 µM): 0.152
probe-labelled cysteine peptide fold change (50 µM): -0.202

POR_P16435_363_KHPFPCPTSYR (UniProt P16435)
probe-labelled cysteine peptide fold change (10 µM): 0.017
probe-labelled cysteine peptide fold change (50 µM): 0.198

POLR1B_Q9H9Y6_1098+1101_KYNCTLCSR (UniProt Q9H9Y6)
probe-labelled cysteine peptide fold change (10 µM): -0.0197
probe-labelled cysteine peptide fold change (50 µM): -0.678

PPIL4_Q8WUA2_40_YYNYCLIHNVQR (UniProt Q8WUA2)
probe-labelled cysteine peptide fold change (10 µM): 0.0828
probe-labelled cysteine peptide fold change (50 µM): 0.501

PPIG_Q13427_174_ILSCGELIPK (UniProt Q13427)
probe-labelled cysteine peptide fold change (10 µM): -0.121
probe-labelled cysteine peptide fold change (50 µM): -0.315

POP1_Q99575_959_VTLHCSR (UniProt Q99575)
probe-labelled cysteine peptide fold change (10 µM): 0.187
probe-labelled cysteine peptide fold change (50 µM): 0.0113

POLI_Q9UNA4_336_CSSEVEAK (UniProt Q9UNA4)
probe-labelled cysteine peptide fold change (10 µM): -0.318
probe-labelled cysteine peptide fold change (50 µM): -0.711

POLA2_Q14181_198_VLGCPEALTGSYK (UniProt Q14181)
probe-labelled cysteine peptide fold change (10 µM): -0.0865
probe-labelled cysteine peptide fold change (50 µM): -0.12

POGZ_Q7Z3K3_781+782_YSTCCSR (UniProt Q7Z3K3)
probe-labelled cysteine peptide fold change (10 µM): -0.0196
probe-labelled cysteine peptide fold change (50 µM): -0.298

POLE_Q07864_2221_LMAFTLQDLVCLK (UniProt Q07864)
probe-labelled cysteine peptide fold change (10 µM): 0.251
probe-labelled cysteine peptide fold change (50 µM): -0.257

POP1_Q99575_530_CQDNEK (UniProt Q99575)
probe-labelled cysteine peptide fold change (10 µM): -0.0775
probe-labelled cysteine peptide fold change (50 µM): -0.249

POLR2B_P30876_984_MTIGHLIECLQGK (UniProt P30876)
probe-labelled cysteine peptide fold change (10 µM): 0.0338
probe-labelled cysteine peptide fold change (50 µM): -0.213

POP1_Q99575_804_ITDQEASENHVAATGSHLCVLR (UniProt Q99575)
probe-labelled cysteine peptide fold change (10 µM): -0.282
probe-labelled cysteine peptide fold change (50 µM): -0.409

POLB_P06746_239_FMGVCQLPSK (UniProt P06746)
probe-labelled cysteine peptide fold change (10 µM): 0.161
probe-labelled cysteine peptide fold change (50 µM): 0.104

PPAT_Q06203_503+506_SGHCTACLTGK (UniProt Q06203)
probe-labelled cysteine peptide fold change (10 µM): 0.15
probe-labelled cysteine peptide fold change (50 µM): -0.0929

POLR1B_Q9H9Y6_1070_SVAHVCVK (UniProt Q9H9Y6)
probe-labelled cysteine peptide fold change (10 µM): 0.11
probe-labelled cysteine peptide fold change (50 µM): -0.092

POP1_Q99575_819_QLSAWCGPSSEDSR (UniProt Q99575)
probe-labelled cysteine peptide fold change (10 µM): 0.0101
probe-labelled cysteine peptide fold change (50 µM): -0.114

PPIA_P62937-2_2_CQGGDFTR (UniProt P62937)
probe-labelled cysteine peptide fold change (10 µM): 0.0904
probe-labelled cysteine peptide fold change (50 µM): 0.163

PPIH_O43447_131_CDWLDGK (UniProt O43447)
probe-labelled cysteine peptide fold change (10 µM): -0.0324
probe-labelled cysteine peptide fold change (50 µM): -0.269

POR_P16435_566_EVGETLLYYGCR (UniProt P16435)
probe-labelled cysteine peptide fold change (10 µM): 0.0903
probe-labelled cysteine peptide fold change (50 µM): 0.182

POLR3B_Q9NW08_1054_DCLIGYGASMLLLER (UniProt Q9NW08)
probe-labelled cysteine peptide fold change (10 µM): 0.354
probe-labelled cysteine peptide fold change (50 µM): 0.0801

POLR1B_Q9H9Y6_847_ENCVVDNIK (UniProt Q9H9Y6)
probe-labelled cysteine peptide fold change (10 µM): -0.0384
probe-labelled cysteine peptide fold change (50 µM): 0.0887

POLR2G_P62487_106_VGLFTEIGPMSCFISR (UniProt P62487)
probe-labelled cysteine peptide fold change (10 µM): 0.222
probe-labelled cysteine peptide fold change (50 µM): 0.588

POP1_Q99575_283_ALSGMCNIDTGLTFAAVHCLSGKR (UniProt Q99575)
probe-labelled cysteine peptide fold change (10 µM): -0.041
probe-labelled cysteine peptide fold change (50 µM): -0.111

PPIE_Q9UNP9_198_IIPQFMCQGGDFTNHNGTGGK (UniProt Q9UNP9)
probe-labelled cysteine peptide fold change (10 µM): 0.0421
probe-labelled cysteine peptide fold change (50 µM): -0.134

PPA2_Q9H2U2_44_GQPCSQNYR (UniProt Q9H2U2)
probe-labelled cysteine peptide fold change (10 µM): -0.17
probe-labelled cysteine peptide fold change (50 µM): -0.0246

PPFIBP1_Q86W92_140_IRDLEFCLEEHREK (UniProt Q86W92)
probe-labelled cysteine peptide fold change (10 µM): 0.00949
probe-labelled cysteine peptide fold change (50 µM): -0.0866

POLR2M_P0CAP2_82_KSELFNPVSLDCK (UniProt P0CAP2)
probe-labelled cysteine peptide fold change (10 µM): -0.417
probe-labelled cysteine peptide fold change (50 µM): -0.335

POLR1A_O95602_822_IIEESTHCGPQAVR (UniProt O95602)
probe-labelled cysteine peptide fold change (10 µM): 0.032
probe-labelled cysteine peptide fold change (50 µM): 0.0541

POP1_Q99575_270+283_ALSGMCNIDTGLTFAAVHCLSGK (UniProt Q99575)
probe-labelled cysteine peptide fold change (10 µM): 0.101
probe-labelled cysteine peptide fold change (50 µM): -0.135

POR_P16435_363_HPFPCPTSYR (UniProt P16435)
probe-labelled cysteine peptide fold change (10 µM): -0.0503
probe-labelled cysteine peptide fold change (50 µM): -0.032

POLR2B_P30876_572_IFVNGCWVGIHK (UniProt P30876)
probe-labelled cysteine peptide fold change (10 µM): -0.0781
probe-labelled cysteine peptide fold change (50 µM): 0.748

POLA1_P09884_497_GPCWLEVK (UniProt P09884)
probe-labelled cysteine peptide fold change (10 µM): 0.118
probe-labelled cysteine peptide fold change (50 µM): 0.0533

POGZ_Q7Z3K3_986_VVLFALCCNTEQAAEHFR (UniProt Q7Z3K3)
probe-labelled cysteine peptide fold change (10 µM): -0.0541
probe-labelled cysteine peptide fold change (50 µM): -0.0339

POR_P16435_434+445_HILAILQDCPSLRPPIDHLCELLPR (UniProt P16435)
probe-labelled cysteine peptide fold change (10 µM): -0.0234
probe-labelled cysteine peptide fold change (50 µM): 0.446

POLR2A_P24928_641_VVVENGELIMGILCK (UniProt P24928)
probe-labelled cysteine peptide fold change (10 µM): 0.076
probe-labelled cysteine peptide fold change (50 µM): -0.0713

POLK_Q9UBT6_545_SIIGFLQAGNQALSATECTLEK (UniProt Q9UBT6)
probe-labelled cysteine peptide fold change (10 µM): -0.695
probe-labelled cysteine peptide fold change (50 µM): -0.377

POLR3B_Q9NW08_593_LCRPYIIVK (UniProt Q9NW08)
probe-labelled cysteine peptide fold change (10 µM): 0.112
probe-labelled cysteine peptide fold change (50 µM): -0.0422

POR_P16435_472_VHPNSVHICAVVVEYETK (UniProt P16435)
probe-labelled cysteine peptide fold change (10 µM): 0.0143
probe-labelled cysteine peptide fold change (50 µM): 0.0461

PPFIBP2_Q8ND30_145_DLEVCLEGHQVK (UniProt Q8ND30)
probe-labelled cysteine peptide fold change (10 µM): -6.33e-05
probe-labelled cysteine peptide fold change (50 µM): -0.0441

PPIA_P62937_161_ITIADCGQLE (UniProt P62937)
probe-labelled cysteine peptide fold change (10 µM): -0.286
probe-labelled cysteine peptide fold change (50 µM): 0.106

POLRMT_O00411_591_LLAEMLVQATQMPCSLDK (UniProt O00411)
probe-labelled cysteine peptide fold change (10 µM): 0.104
probe-labelled cysteine peptide fold change (50 µM): -0.802
